From article PMC11005689 come the findings set out here.

Protein sequences, listed by entry. Tags and fused reporters are not part of them.
UniProt Q7L5N1: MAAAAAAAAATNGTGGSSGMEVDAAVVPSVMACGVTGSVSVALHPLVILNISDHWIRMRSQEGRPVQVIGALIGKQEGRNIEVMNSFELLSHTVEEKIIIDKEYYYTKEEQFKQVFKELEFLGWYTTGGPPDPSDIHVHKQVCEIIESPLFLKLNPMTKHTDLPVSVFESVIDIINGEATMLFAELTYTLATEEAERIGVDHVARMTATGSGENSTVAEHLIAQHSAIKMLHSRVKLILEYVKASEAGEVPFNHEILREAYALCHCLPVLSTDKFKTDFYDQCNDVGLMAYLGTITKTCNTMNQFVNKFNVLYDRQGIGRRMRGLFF

The target of the test is CSN6 (human (endogenous in Huh-7)) (UniProt Q7L5N1). Briefly: affinity purification with mass spectrometry; CSN6 immunoprecipitated from Huh7 cells in the presence of MG132 for 8 h; mass spectrometry of associated proteins.

These are yes or no findings as the source states them, for the method shown. Binding seen in cells or lysates may run through a third protein. A yes stands for co-enrichment or nearness to the bait. Other partners may have been found.

B1: hydroxymethylglutaryl‐CoA synthase 1 (HMGCS1) (protein, UniProt Q01581 1-520)
chain: MPGSLPLNAEACWPKDVGIVALEIYFPSQYVDQAELEKYDGVDAGKYTIGLGQAKMGFCTDREDINSLCMTVVQNLMERNNLSYDCIGRLEVGTETIIDKSKSVKTNLMQLFEESGNTDIEGIDTTNACYGGTAAVFNAVNWIESSSWDGRYALVVAGDIAVYATGNARPTGGVGAVALLIGPNAPLIFERGLRGTHMQHAYDFYKPDMLSEYPIVDGKLSIQCYLSALDRCYSVYCKKIHAQWQKEGNDKDFTLNDFGFMIFHSPYCKLVQKSLARMLLNDFLNDQNRDKNSIYSGLEAFGDVKLEDTYFDRDVEKAFMKASSELFSQKTKASLLVSNQNGNMYTSSVYGSLASVLAQYSPQQLAGKRIGVFSYGSGLAATLYSLKVTQDATPGSALDKITASLCDLKSRLDSRTGVAPDVFAENMKLREDTHHLVNYIPQGSIDSLFEGTWYLVRVDEKHRRTYARRPTPNDDTLDEGVGLVHSNIATEHIPSPAKKVPRLPATAAEPEAAVISNGEH
B1: the binding result is reported as “binds”.
